Experimental data as given in patent US20240150286A1, “PEROXISOME PROLIFERATOR-ACTIVATED RECEPTOR GAMMA (PPARy) LIGANDS AND METHODS OF USE AS TREATMENTS FOR INSULIN RESISTANCE, OBESITY, FATTY LIVER DISEASE, AND TYPE 2 DIABETES” (The Board of Regents of the University of Oklahoma, priority 2022, published 2024).
At least one structure is not confirmed: it was looked up by name or label, or the drawing left a doubt.

System: 3T3-L1 cells
Experiment: 3T3-L1 adipocyte differentiation (Oil Red O staining, adipogenic gene mRNA)
Assay type: cell-based, mouse
Protocol: 3T3-L1 preadipocytes were differentiated. In brief, cells at around 60%-70% confluence were induced for differentiation with DMEM containing 10% FBS, 1 μg/ml insulin, 1 μM dexamethasone, and 0.5 mM IBMX for 48 h in the presence or absence of compounds and were then exposed in maintenance medium (1 μg/mL insulin in 10% FBS/DMEM) containing compounds. The medium was renewed every 2 days for total 8 days of differentiation when the cells became differentiated and lipid droplets were apparent. For primary preadipocyte differentiation, isolation of primary preadipocytes was performed. Briefly, fat depots were digested in PBS containing collagenase D (1.5 U/ml) at 37° C. for 40-45 min. The primary cells were filtered through 70 μm cell strainer and centrifuge at 700 g to collect stromal vascular fraction (SVF). The SVF cell pellets were plated on collagen coated plates. […]
Total RNA (2 μg) was isolated from tissues or cells using TRIzol reagents (Life Technologies) and reverse transcribed using oligo d(T) primers (New England Biosystems) and SuperScript IV reverse transcription kit (Applied Biosystems). qPCR was performed in a CFX96 Touch Real-Time PCR detection system using SYBR Green mix (Applied Biosystems). […] Relative mRNA expression was determined by the ΔΔCt method normalized to TBP mRNA. […]

## CN(CCOc1ccc(CC2SC(=O)NC2=O)cc1)c1ccccn1 (centres unmarked) [Rosi, rosiglitazone, reference compound]
3T3-L1, compounds at 10 μM, qRT-PCR
  mRNA levels of adipogenic genes PPARγ, FABP4, Glut4, PEPCK, C/EBPa: significantly upregulated
3T3-L1, differentiation media, compounds at 10 μM
  Oil Red O staining / adipocyte differentiation: markedly induced the differentiation of adipocytes
